Experimental data as given in PubChem BioAssay AID720504 (National Center for Advancing Translational Sciences (NCATS), 2013).
Out of some 360,000 compounds screened, about 10,000 (2.8%) were called active. Inconclusive results, whose numbers are uncertain, are shown with a selection of clear calls. Calls follow the shape of the dose curve; as a rule, active = well fitted inhibition curve with a large enough effect; inconclusive = small, poorly fitted or top-dose-only effect; inactive = flat fitted curve, though single readings scatter. Potencies of inconclusive entries are doubtful fits and often do not repeat.
% is scaled to controls: 0 for no effect and ±100 for the full control effect; potency is read from the fitted curve at half-maximal effect.
Also: nearly all actives have a fitted effect of over 65% in size.
For max response, negative = inhibition in this document: series mostly up to about 57 µM.

The chains behind the UniProt entries cited, without tags or fusion partners.
UniProt P53350, whole entry, looked up: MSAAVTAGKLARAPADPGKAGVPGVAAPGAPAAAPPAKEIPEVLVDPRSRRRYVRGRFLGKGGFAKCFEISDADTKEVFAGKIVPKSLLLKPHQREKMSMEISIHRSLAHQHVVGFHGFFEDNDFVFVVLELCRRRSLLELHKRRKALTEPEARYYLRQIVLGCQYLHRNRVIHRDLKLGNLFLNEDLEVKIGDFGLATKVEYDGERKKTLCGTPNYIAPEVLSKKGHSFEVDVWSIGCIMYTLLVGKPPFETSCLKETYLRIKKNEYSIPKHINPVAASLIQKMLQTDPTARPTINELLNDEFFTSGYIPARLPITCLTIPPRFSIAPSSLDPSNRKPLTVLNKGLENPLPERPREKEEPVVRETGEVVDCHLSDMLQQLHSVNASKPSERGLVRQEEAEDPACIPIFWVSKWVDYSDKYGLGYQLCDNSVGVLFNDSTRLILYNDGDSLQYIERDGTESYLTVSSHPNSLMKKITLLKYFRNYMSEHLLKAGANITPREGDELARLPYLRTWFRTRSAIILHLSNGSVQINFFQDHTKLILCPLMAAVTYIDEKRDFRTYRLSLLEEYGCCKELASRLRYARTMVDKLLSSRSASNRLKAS

What follows are molecules tested against Serine/threonine-protein kinase PLK1 (Homo sapiens) (UniProt P53350) (assay: qHTS for Inhibitors of PLK1-PDB (polo-like kinase 1 - polo-box domain): Primary Screen). Conditions: Plk1 PBD binding of FITC phosphopeptide, fluorescence polarization.
For CC(C)(C)c1ccccc1OCCCCCn1ccnc1, the Potency was inconclusive: 18.9 µM [inhibitor, single point]. For Oc1cc2c(cc1O)[C@H]1c3ccc(O)c(O)c3OC[C@@]1(O)C2, the Potency was active: 7.52 µM. With CC(OC(=O)c1cc(O)c2ccccc2c1O)C(=O)Nc1ccc(C(N)=O)cc1 (stereo not given) the Potency was active: 6.7 µM. CCOc1ccc2c(c1)-c1c(ssc1=S)C(C)(C)N2C was tested, and the Potency was inconclusive: 29.9 µM [inhibitor, single point]. For CNC(=O)Nc1cc(C)nn1C, the Potency was active: 18.9 µM. In the case of COc1cc(S(=O)(=O)Nc2ccc(C)cc2)ccc1N=Cc1c(C)c(C#N)c(=O)n(C)c1O, the Potency was inconclusive: 84.4 µM [inhibitor, single point]. In the case of CCOc1ccc(NC(=S)Nc2ccc3nsnc3c2)cc1, the Potency was active: 26.7 µM. In the case of Cc1ccc(S(=O)(=O)Oc2cccc(/C=N/n3cnnc3)c2)cc1, the max response, negative = inhibition was inactive: -8.06%. In the case of CC(=O)Nc1ccc(SCCC2CCCCN2C)cc1 (stereo not given), the Potency was inconclusive: 26.7 µM [inhibitor, partial curve]. In the case of COc1cc(C2NC(=O)C(C#N)=C(S)N2c2ccc(C)cc2)ccc1OC(C)C (stereo not given), the Potency was inconclusive: 26.7 µM [inhibitor, partial curve]. In the case of O=S(=O)(N/N=C\c1c(F)cccc1Cl)c1ccc(Cl)cc1, the Potency was active: 15 µM. For CCOC(=O)C(C)(C)Sc1nc2c(cnn2-c2ccc(C)cc2)c(=O)[nH]1, the Potency was inconclusive: 29.9 µM [inhibitor, partial curve]. In the case of COc1ccc2c(c1OC)C(=O)OC2Nc1nc(-c2cc3cc(Br)ccc3oc2=O)cs1 (stereo not given), the Potency was inconclusive: 26.7 µM [inhibitor, single point]. With O=C(CCSc1ccccc1)NCCN1CCOCC1 the Potency was inconclusive: 23.8 µM [inhibitor, partial curve]. For COC(=O)c1ccccc1-c1ccc(C(c2c(C)[nH][nH]c2=O)c2c(C)[nH][nH]c2=O)o1, the Potency was inconclusive: 26.7 µM [inhibitor, single point]. For CS(=O)(=O)N1CCC(C(=O)NCc2ccccc2)CC1, the max response, negative = inhibition was inconclusive: -12.6% [inhibitor]. In the case of O=C1NC2(CCCCC2)C(=O)N1CC(=O)N(Cc1ccccc1)c1ccccc1, the Potency was inconclusive: 33.6 µM [inhibitor, partial curve, poor fit]. Cc1cc(C)n(C(=O)CSc2nnc(SCC(=O)n3nc(C)cc3C)s2)n1 was tested, and the max response, negative = inhibition was inactive: -2.21%. With CC(C)(C)c1cc[n+](-c2[nH]c(=O)sc2/C=N/NC([S-])=Nc2ccccc2)cc1 the Potency was inconclusive: 16.8 µM [inhibitor, partial curve]. With Cc1ccc(S(=O)(=O)N2[C@@H](c3cccc(Cl)c3)C(C(=O)O)=CC[C@H]2c2ccc(Cl)c(Cl)c2)cc1 the Potency was active: 21.2 µM. With CCC1(C)Cc2c(sc3[nH]c(=S)n(Cc4ccccc4)c(=O)c23)CO1 (stereo not given) the Potency was inconclusive: 21.2 µM [inhibitor, single point]. With O=C(Nc1nc2ccc(Cl)cc2s1)c1ccco1 the max response, negative = inhibition was inactive: 0.0542%. COc1ccc(C(NC(=O)/C=C\c2ccco2)c2ccc(OC)c(OC)c2)cc1 (stereo not given) was tested, and the Potency was inconclusive: 29.9 µM [inhibitor, partial curve]. COc1ccccc1OCCn1c(=S)[nH]c2ccccc21 was tested, and the Potency was inconclusive: 16.8 µM [inhibitor, partial curve]. With NC(=S)NN=C1CSSC1 the Potency was inconclusive: 37.7 µM [inhibitor, single point]. CCOc1ccc(N(CC(=O)NC2CCCCC2)S(=O)(=O)c2c(C)noc2C)cc1 was tested, and the Potency was active: 29.9 µM. In the case of O=C(NNc1nc(-c2ccc(Cl)cc2)cs1)c1ccco1, the max response, negative = inhibition was inactive: -20.3%. For CCN(CC(=O)Nc1cc(S(=O)(=O)N2CCOCC2)ccc1C)Cc1ccccc1, the max response, negative = inhibition was inactive: 1.96%. CCNC(=S)N(CCc1c(C)[nH]c2ccccc12)Cc1cccnc1 was tested, and the Potency was inconclusive: 29.9 µM [inhibitor, partial curve]. COC(=O)C1CCN(C(=O)CCCOc2ccccc2)CC1 was tested, and the Potency was inconclusive: 29.9 µM [inhibitor, single point]. With CC(=O)N1c2c(cc(Br)cc2S(=O)(=O)N2CCN(C(=O)c3ccco3)CC2)CC1C (stereo not given) the Potency was active: 4.74 µM. With CCc1c(C)sc(NC(=O)c2cccs2)c1C#N the Potency was inconclusive: 11.9 µM [inhibitor, partial curve]. With CC(C)N=C1NN=C(c2cccs2)CS1 the max response, negative = inhibition was inactive: -17.9%. In the case of C=CCn1cccc(C(=O)Nc2ccc(OC)cc2OC)c1=O, the Potency was active: 26.7 µM. With O=C(NNC(=S)Nc1cccc(C(F)(F)F)c1)c1ccccc1Cl the max response, negative = inhibition was inconclusive: -33.8% [inhibitor]. In the case of COC(=O)C1CSc2[nH]c(=O)sc2C1c1ccc(O)c(OC)c1 (stereo not given), the Potency was inconclusive: 33.6 µM [inhibitor, single point]. COc1ccc(C(=O)COC(=O)C(CCCCN2C(=O)C3C4C=CC(C4)C3C2=O)N2C(=O)C3C4C=CC(C4)C3C2=O)cc1 (stereo not given) was tested, and the Potency was inconclusive: 23.8 µM [inhibitor, single point]. For COc1ccc(-n2c(Cn3c(=O)sc4ccccc43)nnc2SCC(=O)N2CCCC2)cc1, the Potency was inconclusive: 26.7 µM [inhibitor, partial curve]. With CCN(CC(=O)Nc1c(F)cccc1F)C(=O)CCSc1ccc(F)cc1 the Potency was inconclusive: 18.9 µM [inhibitor, partial curve]. With COc1cccc(N2CCN(C(=O)c3cc4c(=O)n(Cc5ccccc5)ccc4nc3C)CC2)c1 the max response, negative = inhibition was inactive: 1.56%. O=C(Nc1cccc(C(F)(F)F)c1)OCCN1CCN(Cc2ccccc2)CCC1=O was tested, and the max response, negative = inhibition was inactive: 0.932%. With COc1cccc(NC(=O)c2cnc(NS(=O)(=O)c3ccccc3)nc2)c1 the max response, negative = inhibition was inactive: 0.715%. With Cc1ccc(-c2csc(NC(=O)c3ccc(Br)cc3)c2C(=O)O)cc1 the Potency was inconclusive: 26.7 µM [inhibitor, single point]. In the case of CC1(c2ccccc2)NC(=O)N(CC(=O)Nc2nc(-c3ccccn3)cs2)C1=O (stereo not given), the Potency was inconclusive: 29.9 µM [inhibitor, partial curve]. With COc1ccc(N2CCN(CC(=O)c3ccc(O)cc3O)CC2)cc1 the Potency was inconclusive: 23.8 µM [inhibitor, single point].
